Assay [1] concerns the target T1, USP45-Flag (UniProt Q70EL2).
T1 sequence: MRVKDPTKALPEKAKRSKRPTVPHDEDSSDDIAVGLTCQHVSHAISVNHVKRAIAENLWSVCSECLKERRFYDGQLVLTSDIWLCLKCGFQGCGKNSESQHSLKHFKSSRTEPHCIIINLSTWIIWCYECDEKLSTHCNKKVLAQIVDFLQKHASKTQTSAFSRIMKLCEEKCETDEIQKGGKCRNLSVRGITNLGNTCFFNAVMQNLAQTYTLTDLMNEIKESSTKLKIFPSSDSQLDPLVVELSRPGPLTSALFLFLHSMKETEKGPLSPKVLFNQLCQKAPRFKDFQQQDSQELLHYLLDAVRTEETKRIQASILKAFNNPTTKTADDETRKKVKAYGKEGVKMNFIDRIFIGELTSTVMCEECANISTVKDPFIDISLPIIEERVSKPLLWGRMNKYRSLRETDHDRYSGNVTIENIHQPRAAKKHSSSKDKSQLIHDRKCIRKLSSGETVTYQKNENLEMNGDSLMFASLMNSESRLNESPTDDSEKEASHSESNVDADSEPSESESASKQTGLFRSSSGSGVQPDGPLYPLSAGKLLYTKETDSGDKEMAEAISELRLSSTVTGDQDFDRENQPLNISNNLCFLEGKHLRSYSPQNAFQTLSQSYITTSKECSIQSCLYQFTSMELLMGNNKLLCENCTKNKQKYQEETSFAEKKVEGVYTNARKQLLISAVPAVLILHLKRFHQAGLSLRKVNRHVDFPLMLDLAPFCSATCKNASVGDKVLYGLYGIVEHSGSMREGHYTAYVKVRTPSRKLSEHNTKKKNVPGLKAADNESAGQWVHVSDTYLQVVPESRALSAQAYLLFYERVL
Briefly: co-IP; HEK293T cells transfected with MYC-HA and USP45-Flag (WT or deletion mutants); IP with anti-Flag (also anti-HA in Figure 2A); plvx-puro vector as negative control.

Sequences of proteins named here, by UniProt entry; tags and fusion partners are left off.
UniProt P01106: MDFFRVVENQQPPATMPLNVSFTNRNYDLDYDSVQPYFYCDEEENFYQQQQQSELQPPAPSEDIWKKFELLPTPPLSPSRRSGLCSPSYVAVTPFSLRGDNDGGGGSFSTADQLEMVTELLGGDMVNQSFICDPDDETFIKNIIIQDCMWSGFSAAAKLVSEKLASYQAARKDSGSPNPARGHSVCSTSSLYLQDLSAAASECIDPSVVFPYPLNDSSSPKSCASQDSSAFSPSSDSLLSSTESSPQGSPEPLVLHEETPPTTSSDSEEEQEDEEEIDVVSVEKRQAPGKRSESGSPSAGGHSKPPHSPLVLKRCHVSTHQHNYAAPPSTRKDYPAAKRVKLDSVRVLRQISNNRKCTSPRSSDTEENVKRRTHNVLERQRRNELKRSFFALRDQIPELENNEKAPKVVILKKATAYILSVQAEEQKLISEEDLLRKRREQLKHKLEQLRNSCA

Assay [2] deals with T2, C-terminal domain of USP45 (190-814 domain), USP45-Flag deletion mutant (UniProt Q70EL2).
T2 sequence: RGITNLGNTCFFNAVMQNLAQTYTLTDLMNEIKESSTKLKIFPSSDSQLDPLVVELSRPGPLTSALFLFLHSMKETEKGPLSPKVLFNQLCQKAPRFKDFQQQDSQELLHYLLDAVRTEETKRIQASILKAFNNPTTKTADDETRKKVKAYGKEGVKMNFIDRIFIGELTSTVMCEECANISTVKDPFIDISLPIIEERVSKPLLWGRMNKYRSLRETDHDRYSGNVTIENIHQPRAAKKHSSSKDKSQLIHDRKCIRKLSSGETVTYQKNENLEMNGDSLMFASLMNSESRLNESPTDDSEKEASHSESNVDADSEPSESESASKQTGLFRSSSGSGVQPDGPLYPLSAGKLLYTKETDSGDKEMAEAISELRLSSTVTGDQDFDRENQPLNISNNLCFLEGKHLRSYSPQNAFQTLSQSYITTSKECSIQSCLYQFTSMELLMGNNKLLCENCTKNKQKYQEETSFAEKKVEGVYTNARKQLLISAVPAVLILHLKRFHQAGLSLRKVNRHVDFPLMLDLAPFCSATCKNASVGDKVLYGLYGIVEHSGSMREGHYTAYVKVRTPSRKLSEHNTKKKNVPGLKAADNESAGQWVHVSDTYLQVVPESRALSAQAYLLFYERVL
Described as above.

Assay [3] deals with T1, USP45-Flag. Briefly: co-IP; HEK293T cells transfected with USP45-Flag (WT or C199A); IP with anti-Flag, control IgG or plvx-puro vector as control; endogenous MYC detected.
The next assay deals with T3, USP45-Flag C199A (UniProt Q70EL2).
T3 sequence: T1 sequence with C199A
Described as above.

The target of a further assay is T4, USP45-His (UniProt Q70EL2).
T4 sequence: T1 sequence
In words: pull-down; USP45 purified from E. coli and MYC purified from HEK293T cells incubated together, followed by pulling down; bait not stated; both purified.

Assay [4] concerns the target endogenous MYC (human (endogenous in HEK293T)) (UniProt P01106). In words: co-IP; HEK293T cell lysate, endogenous proteins; IP with anti-MYC and control IgG.

Changes are numbered by the printed parent chain. These are yes or no findings as the source states them, for the method shown. For part of these data: In cells and extracts the contact can be indirect. Some binding calls cover weakened binding; strength is not graded here. For part of these data: Tags and fused reporters may be left off the sequences shown.

Take MYC-HA (from UniProt P01106 1-454): the binding entry (with USP45-Flag [1]; in assay [2]) was “binds” in each case.

Consider “endogenous MYC (from UniProt P01106 1-454)”, for which the binding result in the assay with USP45-Flag [3] and with USP45-Flag C199A was “binds” in each case.

Consider “MYC purified from HEK293T cells (from UniProt P01106 1-454)”, for which, in the assay with USP45-His, the binding result was “binds”.

B1: endogenous USP45 (enzyme, UniProt Q70EL2 1-814)
chain: T1 sequence
On to B1, for which the binding entry in assay [4] is on record as “binds”.

The values above are taken from publication PMC9913288, “Suppression of Cancer Cell Stemness and Drug Resistance via MYC Destabilization by Deubiquitinase USP45 Inhibition with a Natural Small Molecule” (Cancers, 2023).
